PubChem BioAssay AID1273 (Columbia University Molecular Screening Center, 2008)
The other results are listed elsewhere or left out. The main result of the screen is listed elsewhere. These columns were measured beside it and carry no call. The list favours compounds with an active or inconclusive main result.

Assay: inhibitors of insulin promoter-driven GFP, primary screen, imaging, TRM-6 cells (human fetal islet line), eGFP reporter, cell count (AID 1273;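 further: cells exposed to compound for 48 h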)
Conditions: measured here: cell count, toxicity, at 2 µM, reporter expression induced with tamoxifen

SMILES	normalized cell count
O=C(Oc1c(Cl)cc(Cl)c2cccnc12)c1ccco1	71.3%
Cc1ccc(C2CC2C(=O)NNC(=S)Nc2cccc(C)c2)cc1 (stereo not drawn)	89.1%
CC(=O)c1cc(C#N)c(SCC(=O)OC(C)C)nc1C	189%
O=C(COc1cccc(F)c1)N1c2ccccc2Sc2ccccc21	157%
O=C(CSc1nnc(NC(=O)Cc2ccc(F)cc2)s1)NCc1ccco1	141%
COc1ccc(C(=O)NCc2cc(C)nc3ccccc23)cc1OC	116%
Cc1ccc(/C=C(\C#N)c2nc3ccccc3[nH]2)s1	114%
Cc1onc(-c2ccccc2)c1C(=O)N1CCN(C(=O)c2ccco2)CC1	111%
Cc1ccc(CO/N=C/C2=C(Cl)c3ccccc3CC2)cc1	46.5%
CC12CCC(C(=O)N(CSC(=S)N/N=C\c3ccccc3)C1=O)C2(C)C (stereo not drawn)	107%
CC(=O)NC(=S)Nc1ccc(NC(=O)COc2ccc(C(C)C)cc2)cc1	106%
COC(=O)Cc1c(C)c2c(O)cc(C)cc2oc1=O	135%
Cc1cccc(OCC(=O)N(Cc2cccs2)C2CCS(=O)(=O)C2)c1 (stereo not drawn)	105%
CCOC(=O)c1[nH]c2ccccc2c1NC(=O)NC1CCCCC1	77.5%
CC(=O)N1N=C(N)SC1c1cccc([N+](=O)[O-])c1 (stereo not drawn)	119%
Cc1onc(-c2ccccc2)c1C(=O)Nc1ccc(S(=O)(=O)N2CCCC2)cc1	37.2%
COCC(C)NC(=O)NC1(C(F)(F)F)Oc2ccc(Cl)cc2O1 (stereo not drawn)	103%
NC(=O)Cc1ccc(C(=O)c2ccccc2F)s1	125%
C=C(C)CSc1nc2nc(C)c(Br)cc2[nH]1	117%
Cc1ccc(SCCC(=O)N2CCCC2)cc1	149%
Cc1onc(-c2ccccc2Cl)c1C(=O)N1CCN=C1SCc1cccnc1	88.9%
CCOc1cccc(C(=O)Nc2nc(-c3ccc(S(=O)(=O)N4CCOCC4)cc3)cs2)c1	83.8%
CCOC(=O)N1CCN(C(=O)c2ccc3nc(C)sc3c2)CC1	35.7%
C/C(=N\NC(=O)c1cccc(N/N=C(\C)c2ccco2)c1)c1ccco1	53.3%
COc1ccc2c(OC)cc(-c3ccccc3)nc2c1	100%

SMILES	normalized cell count
O=C(CN1C(=O)C2C3C=CC(C3)C2C1=O)Nc1cccc(S(=O)(=O)N2CCCC2)c1 (stereo not drawn)	1.15%
Cc1ccc2nc(NCCCO)[nH]c2c1	120%
c1ccc2[nH]c(N3CCOCC3)nc2c1	112%
Cc1ccc(C)c(S(=O)(=O)NCc2ccc(C(=O)N3CCCCCC3)cc2)c1	82.3%
Cc1sc2nc(CN(Cc3cccs3)C(=O)C3CC3)[nH]c(=O)c2c1C	80.1%
CCN(CC)CCCNC1CCS(=O)(=O)C1 (stereo not drawn)	131%
CCNc1nc(Oc2ccc(=O)[nH]n2)nc(SC)n1	100%
CC(=O)NCCOc1c(C)cc(S(N)(=O)=O)cc1C	150%
Cc1ccc(CNc2nc3ccccc3s2)s1	173%
CC1CCC(n2c(=S)[nH]c3ccccc3c2=O)CC1 (stereo not drawn)	155%
O=c1[nH][nH]c2cc(=O)n(-c3cccc(C(F)(F)F)c3)nc12	171%
Cc1ccc(-c2cc(-c3ccccc3Cl)[nH]n2)c(O)c1	115%
Cc1cc(C(F)F)n2nc(C(=O)Nc3ccc(S(=O)(=O)N4CCCCCC4)cc3)nc2n1	92.5%
O=C(O)Cn1nc(-c2ccccc2)c2ccccc2c1=O	121%
CCOC(=O)c1[nH]c(C)c(CN(CCc2ccc(OC)c(OC)c2)C(=O)CCCC(=O)O)c1C	119%
O=C(NCC1CCCO1)c1ccccn1 (stereo not drawn)	54.2%
COc1ccc(C(C(=O)NC2CCCCC2)N(C(=O)c2ccco2)c2ccc(-n3cnnn3)c(C)c2)cc1 (stereo not drawn)	95.1%
Cc1c(/C=C/C(=O)c2ccc(Cl)s2)cnn1C	96.8%
CCn1c(-c2nn(C)c(C)c2Cl)n[nH]c1=S	94.3%
Cc1ccnc(Nc2nc3ccccc3o2)n1	110%
COC(=O)c1ccc(COC(=O)CNS(=O)(=O)c2ccc(C)cc2)cc1	79.8%
Cc1cc(C)n(CC(=O)N2c3ccccc3Sc3ccc(C(F)(F)F)cc32)n1	80.6%
N/C(Cc1ccc([N+](=O)[O-])cc1)=N\OC(=O)c1ccc(Br)o1	65.3%
CCN(CC)S(=O)(=O)c1ccc(NC(=O)c2cc(C(=O)OC)cc([N+](=O)[O-])c2)cc1	45.6%
O=C(c1ccc(S(=O)(=O)N2CCCCC2)cc1)N1CCN(c2ccccc2F)CC1	0%

Some of the entries above in another layout:
SMILES | normalized cell count
CCNc1nc(Oc2ccc(=O)[nH]n2)nc(SC)n1 | 100%
O=c1[nH][nH]c2cc(=O)n(-c3cccc(C(F)(F)F)c3)nc12 | 171%
Cc1ccc(-c2cc(-c3ccccc3Cl)[nH]n2)c(O)c1 | 115%

(more compounds)

SMILES	normalized cell count
COc1cc(OC)c(NC(=O)c2c(-c3ccccc3)noc2C)cc1Cl	174%
CCOC(=O)c1nn(-c2ccc(C)cc2)c(C)c1C(C)=O	83.6%
O=C(Nc1ccc(Br)c(Cl)c1)C1CC1	108%
COc1ccccc1NC(=S)N1CCCc2ccccc21	71.8%
O=C(C1CCN(c2nnc(-n3cccc3)s2)CC1)N1CCOCC1	63%
COC(=O)c1ccc(CSc2nc3ccccc3o2)cc1	84.2%
Cc1cc(NS(=O)(=O)c2ccc(NC(=O)c3oc4ccccc4c3C)cc2)no1	104%
CCNc1nc(NCC)nc(N(n2cnnc2)S(=O)(=O)c2ccc(C)cc2)n1	59.3%
Cc1csc(NC(=O)CS(=O)(=O)c2ccccc2)n1	108%
CCOC(=O)N1CCN(c2ncnc3c2[nH]c2ccc(OC)cc23)CC1	164%
CCCN1Cc2cccc(C(=O)NC3CCCC3)c2C1=O	204%
Cc1cc(/C=C2/C(=N)N3C(=NC2=O)SN=C3S(C)(=O)=O)c(C)n1-c1ccc(F)cc1	168%
Cc1ccc(C)c(OCC(=O)N2CCOCC2)c1	38.9%
COc1ccc(-c2cc(Nc3ccccc3NC(=O)C(F)(F)F)n(CCC#N)n2)cc1	194%
CCCOc1cccc(OCCSc2nc(C)cc(=O)[nH]2)c1	143%
CCOC(=O)c1nn(-c2ccccc2)c2nnc(Cc3ccc(C)cc3)c(=O)n12	111%
CCOc1ccccc1N(CC(=O)Nc1ccc2c(c1)OCCO2)S(C)(=O)=O	67.5%
Cc1ccc2nc(-c3ccccc3O)c(Nc3ccc4c(c3)OCCO4)n2c1	144%
CCCCn1c(-c2ccc(Cl)cc2)nc2c(=O)n(C)c(=O)[nH]c21	97.5%
Cc1nnc2c(NC3CCCC3)nc3ccccc3n12	62.3%
CCCCOc1ccc(S(=O)(=O)NCc2csc(C)n2)cc1	156%
COCCCNC(=O)c1ccccc1SC	78.6%
Cc1ccccc1Cn1ccc(NC(=O)c2nn(C)cc2[N+](=O)[O-])n1	79.7%
